Measured values reported in the supplement of paper PMC6821926, “Diaminoquinazoline MMV675968 from Pathogen Box inhibits Acinetobacter baumannii growth through targeting of dihydrofolate reductase” (Scientific Reports, 2019).
± gives the uncertainty stated by the source. This is one part of the list.

How the values were obtained:
[1] = tested on: Acinetobacter baumannii Mahidol; experiment: percent growth relative to DMSO-treated control; higher = less growth inhibition; settings: 10 µM; 18 h
[2] = tested on: Acinetobacter baumannii Naval-81; experiment: as above; settings: 10 µM; 18 h

Compound | percent growth [1] | percent growth [2]
Cc1ccc(C(=O)Nc2ccc(S(=O)(=O)O)c3cc(S(=O)(=O)O)cc(S(=O)(=O)O)c23)cc1NC(=O)c1cccc(NC(=O)Nc2cccc(C(=O)Nc3cc(C(=O)Nc4ccc(S(=O)(=O)O)c5cc(S(=O)(=O)O)cc(S(=O)(=O)O)c45)ccc3C)c2)c1 | 77.3 ± 29% | 90.4 ± 22%
CCc1ccc([C@@H]2C[C@H](C(F)(F)F)n3ncc(C(=O)NCc4ccc(OC)cc4)c3N2)cc1 | 87.5 ± 19% | 104 ± 6.4%
O=C1N(Cc2cc3ccccc3s2)CC2CN(Cc3ccccc3)CCN12 (stereo unspecified) | 80.4 ± 26% | 83.4 ± 27%
COc1ccc(C(=N)N)cc1-c1cn(-c2ccc(C(=N)N)cc2)nn1 | 105 ± 12% | 96.9 ± 14%
CC(C)c1ncc(-c2ccncc2)c([C@H]2CC[C@H](CNC(=O)c3cccnc3)CC2)n1 | 59.9 ± 30% | 87.5 ± 26%
Nc1nccc2ccc(Oc3ccncc3)cc12 | 96.1 ± 2% | 87.5 ± 28%
Clc1ccc(CCNc2cc(-c3ccccc3)nc3ncnn23)cc1 | 77.6 ± 36% | 93.3 ± 8.9%
Cc1ccc2nc(C)c(-c3ccn(Cc4ccccc4)n3)n2c1 | 98.9 ± 7.8% | 75.5 ± 19%
Nc1ncnc2c1c(Cc1cccc3ccccc13)nn2CC1CCNCC1 | 93.8 ± 5.8% | 97.8 ± 6.6%
NS(=O)(=O)c1cccc(-c2ccc3ncc(N4CCOCC4)nc3c2)c1 | 93.7 ± 7.1% | 101 ± 19%
Cc1ccc2c(c1C)NC(=O)C21NN=C(c2ccccc2)S1 (stereo unspecified) | 52.3 ± 36% | 87.3 ± 8.5%
Cc1cc(C)n2nc(C(=O)Nc3cc(C(F)(F)F)ccc3N3CCOCC3)nc2n1 | 61.4 ± 31% | 102 ± 30%
COc1cc2ncnc(NC3CCN(Cc4ccccc4)CC3)c2cc1OC | 90.2 ± 35% | 87.1 ± 23%
CC(=O)NC[C@H]1CN(c2ccc(N3CCSCC3)c(F)c2)C(=O)O1 | 62.2 ± 40% | 98.2 ± 22%
CC(=O)Nc1ccc(-c2noc(CC3CCCN(Cc4cccc(F)c4C)C3)n2)cc1 (stereo unspecified) | 93.6 ± 7.8% | 98.7 ± 10%
CC(C)(C)n1nc(-c2ccccc2)c2c(N)ncnc21 | 93.3 ± 5% | 102 ± 30%
COC(=O)C1=C(C)NC(C)=C(C(=O)OC(C)C)C1c1cccc2nonc12 (stereo unspecified) | 57.4 ± 31% | 80.9 ± 16%
Cn1ccnc1CNCCS(=O)(=O)c1cccc(Nc2ccc(-c3cccc(F)c3)cn2)c1 | 68.6 ± 46% | 91.3 ± 13%
O=C(c1cc2ccccc2o1)N1CCN(Cc2ccc3c(c2)OCO3)CC1 | 107 ± 15% | 78.1 ± 14%
CS(=O)(=O)c1ccccc1C(=O)N(Cc1ccccc1)c1ccccc1 | 98.1 ± 9.9% | 88.7 ± 7%
CCOC(=O)c1c(NC(=O)c2c(F)c(F)c(F)c(F)c2F)sc(C(N)=O)c1C | 105 ± 15% | 87.4 ± 31%
CCOc1ccc2cc(-c3nn(CC4CCN(C)CC4)c4ncnc(N)c34)ccc2c1 | 77.3 ± 57% | 85.98 ± 0.33%
Cc1cc(C)c2cc(C(=O)NC3CCCCCCC3)[nH]c2c1 | 84.9 ± 25% | 97.9 ± 4.1%
CC1CCCCN1C(=O)NCCc1coc(-c2ccc(F)cc2)n1 (stereo unspecified) | 77.9 ± 26% | 95.3 ± 4.8%
O=C(NC1=NCCS1)c1sc2cc(F)ccc2c1Cl | 84.8 ± 32% | 92.4 ± 8.3%
O=C(COc1cccc(F)c1)Nc1nc(-c2ccccn2)cs1 | 84.7 ± 26% | 91.6 ± 6.3%
CCCCc1ccc(C(=O)Nc2nccc3ccccc23)nc1 | 81.8 ± 22% | 95.4 ± 2.4%
NCCN(C(=O)c1ccc(Cl)cc1Cl)c1ccc(OCc2ccc(Cl)cc2)cc1 | 41.6 ± 110% | 101 ± 11%

Looked up above.
Under percent growth [1], `NCCN(C(=O)c1ccc(Cl)cc1Cl)c1ccc(OCc2ccc(Cl)cc2)cc1` is listed with 41.6 ± 110%
Under percent growth [1], `COc1cc2ncnc(NC3CCN(Cc4ccccc4)CC3)c2cc1OC` is listed with 90.2 ± 35%
